Assay results reported in patent US12465609B2, “Methods of treating patients suffering from a disease condition or disorder that is associated with an increased glutamate level” (veriNOS operations GmbH, priority 2022, dated 2025).

Assay: In vitro reverse microdialysis as a model for local administration
Conditions: for concentration in the immersion solution: perfusion Ronopterin 20 mg/mL, 1 μl/min, 20 kDa catheter, 120 to 180 minutes (FIG. 13D)

Compound | measured concentration in immersion solution relative to IC50 value (FIG. 13D) | concentration in the immersion solution
CC(O)C(O)C1=Nc2c(N)nc(N)nc2NC1 [VAS3384, 4-Amino-(6R,S)-7,8-dihydro-L-biopterin] | about 4 times | > 80 µmol/L
C[C@H](O)[C@H](O)C1CNc2nc(N)nc(N)c2N1 (mixture of isomers) [Ronopterin, 4-Amino-(6R,S)-5,6,7,8-tetrahydro-L-biopterin] | – | more than 30 μmol/l
